The supplement of paper PMC3334620
In all, about 33,000 sequences were measured (“E-score (-0.5 to 0.5)”: median about -0.0034, highest 2% from about 0.25 on). This is one part of the list.

What follows are sequences tested against T1, Yap3 (UniProt P38749) (assay: PBM E-score (8-mer binding enrichment) (E-score (-0.5 to 0.5)); higher = stronger / more preferred TF binding). Settings: protein concentration: 100 nM; construct: GST-full length.
T1 sequence: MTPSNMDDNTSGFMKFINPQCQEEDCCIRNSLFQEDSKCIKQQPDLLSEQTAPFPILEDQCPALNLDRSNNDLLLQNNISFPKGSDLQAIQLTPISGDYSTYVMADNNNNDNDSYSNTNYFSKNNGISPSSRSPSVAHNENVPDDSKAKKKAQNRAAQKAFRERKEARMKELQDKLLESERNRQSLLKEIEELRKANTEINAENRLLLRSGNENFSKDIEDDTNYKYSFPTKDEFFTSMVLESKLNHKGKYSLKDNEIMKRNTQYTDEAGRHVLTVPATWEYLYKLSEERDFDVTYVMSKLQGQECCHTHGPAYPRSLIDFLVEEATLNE
Method in brief: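 For each ungapped eight-base word taken together with its reverse complement, the Universal PBM Analysis Suite assigned an E-score. Binding data came from GST-tagged yeast transcription factors, applied at about 100-200 nM, on universal all-10-mer Agilent arrays made double-stranded by primer extension. Fluorescent anti-GST marked bound protein, and scans were normalised with masliner.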

Sequence | PBM E-score
CGGTTTAC | -0.0713
CTGACTGA | -0.0763
AATGGACT | -0.00565
CGTAACCA | 0.17
CCTTCCCC | -0.253
CGGAACCG | -0.136
AAACGTTA | 0.179
CCAAGGGC | -0.27
ACACCAGA | 0.11
GACCTGAA | 0.0077
CTAATCTC | 0.134
TCAGCTAA | 0.0752
AATGGGAT | -0.0702
CACGAGAG | -0.138
GATACATA | 0.214
CGCATGTC | -0.0845
CTGAGGCA | -0.0933
CAACTCAA | 0.198
CGTAAAAG | 0.0794
CGATGCGC | -0.0942
AACGATAT | 0.269
ATACTATA | 0.191
AAAATCCG | 0.0654
GCGTCTGA | -0.1
AAAATCGA | 0.168

Sequence | PBM E-score
ATAGCAAG | 0.149
CACTAAGC | -0.0365
AGCTTGAT | -0.0351
GCGTCAAC | 0.0498
ATGATGGG | -0.00808
ACGAGACG | -0.0604
GTTTGCCA | 0.0636
AAACCCAT | 0.216
AGTGCCGG | -0.153
AACCGTGT | 0.0213
CGGGGACA | -0.153
GTTAGTCA | 0.33
ACTGCACC | -0.042
CACGCAAG | 0.169
TTACGGAA | 0.266
CGATCTTA | 0.0188
CGAAGAGC | -0.0308
ACGGTCCT | -0.225
CATTGAGC | -0.0237
TAGTCAAA | 0.222
CTTAAGAC | -0.117
ATGCGCTA | -0.00231
CCGCGTAA | 0.0463
CGCGGCAG | 0.029
CCCACGTC | -0.122

Some values from the results shown:
CACGCAAG – PBM E-score: 0.169
ACGGTCCT – PBM E-score: -0.225

More entries.

Sequence | PBM E-score
CTTGCACA | 0.0995
GACAAAGC | 0.0522
AATGAGGG | -0.0674
GACCCCTA | -0.229
GATCGAGC | -0.0568
AGCCCGAC | -0.102
ACCTATCT | 0.0909
ACTGTTTC | -0.0552
ATAAGCGC | 0.105
ATGAGTCC | -0.079
AAATTTGG | 0.0997
CAGTTCCG | -0.086
AGACCCCG | -0.0662
CTGCACTC | 0.0431
GCCAGTCC | -0.343
AGAGCCAT | -0.0046
CGTCTAAG | -0.0196
AGCTGGTC | -0.158
AACCTATA | 0.193
CTTGTCGA | -0.0298
ACTGTCCA | -0.128
CCAAGACG | -0.148
GGAGTAGA | 0.0978
ACGCGTAT | 0.196
AGCCTAAG | -0.245

Sequence | PBM E-score
TATCGATA | 0.0263
ACCTGGAT | -0.167
CACACAGA | -0.101
GTTGTCTA | 0.0881
ATCGACAG | -0.00949
CTCAGCGA | 0.125
CCTCGACC | -0.128
AAGCGTGA | 0.0553
CCGGATGA | -0.0374
AGCAAGCC | -0.219
CAAACGAA | 0.0114
AGTGGTCA | -0.0325
ATGAGGTC | -0.0958
ACTCAAAG | -0.0186
AACAAACT | 0.0897
CCACCCGG | -0.298
AGACAAAC | 0.0172
CGTCGAAC | -0.194
AACAGGTA | 0.162
AATAGGCC | -0.0862
CTAGTGGC | -0.107
CTACCGAG | -0.1
ACATGCAG | 0.0576
CTTTAATA | 0.285
CAGGATTC | -0.0296

Sequence | PBM E-score
GCACCTTA | -0.00406
CAGCAGGC | -0.205
CGGACTAC | -0.048
ACTTAGAG | -0.107
AGCGCAGG | -0.185
ACAGTCTC | -0.178
CGATCACG | 0.176
CGGCCACG | -0.138
CGCGAAGC | 0.0371
GAGGGTAC | -0.139
AGGTGATC | 0.0941
ACGTCCAT | -0.0437
ATCCTACC | -0.068
CTCGCAGA | -0.0139
AGCCGGTG | -0.152
ATTGAAAC | 0.155
TCCGCTCA | -0.0153
CACTCGTA | -0.0977
GGGTTACA | -0.0039
ACGTATTA | 0.282
GGAATTGA | 0.119
ACTAATGA | 0.264
CCGGATCC | 0.018
CCCAGTCA | -0.279
AAGCATGT | 0.111

An excerpt of these results, as tab-separated lines.
Sequence	PBM E-score
ACGTATTA	0.282
GGAATTGA	0.119
ACTAATGA	0.264
CCGGATCC	0.018
CCCAGTCA	-0.279

The list goes on:

Sequence | PBM E-score
GATAAAGC | 0.142
CAGCGGTC | -0.214
ACTTCCGG | 0.0969
AAGGGAGC | -0.27
ACCTGAAA | -0.0139
AGTACATG | 0.164
GTAGTCGA | 0.111
ACTATGTG | -0.0195
ATTACTGG | -0.0154
GGGTGTAC | -0.0774
ACCTGACA | 0.0922
ATTTTTAG | -0.0279
ACTCACGA | -0.133
CACAATCC | 0.00037
AAGGAGCA | -0.0902
CTCGACAG | -0.152
CTGGTGTC | -0.0507
GACACTGC | -0.0909
CCATAACC | -0.0883
TCGTCGCA | -0.0153
AACGAACT | -0.0164
CGGAAAGA | 0.147
GAGCTGCC | -0.194
CCAAACTA | 0.0758
TATTACAA | 0.209

Sequence | PBM E-score
ATGCGGTA | -0.0315
ACAACGAG | 0.056
CCGTCTGC | -0.0489
AGCCAAAT | -0.0362
AAATGTCG | 0.0526
AATCTCAT | 0.222
CTAGGGGA | -0.239
CAGTCACA | 0.0306
CCTACGTA | -0.0652
AAATGGCG | 0.0528
CTGGATCA | -0.0291
CGAATTCA | 0.0767
AGCCAGGC | 0.00569
TAGAACTA | -0.11
CGGCAATA | 0.216
CTGGGGGC | -0.381
ACGATAGT | 0.132
ATCGGTTG | 0.0834
ATGAGGCG | -0.141
AGCAACGG | 0.183
TGATCACA | 0.054
GGAGTTCA | -0.0205
AGCAATGA | 0.0602
AATTAACC | 0.124
CTGGAAGC | -0.23

Sequence | PBM E-score
CATAGAGC | -0.0525
AATGCACC | -0.059
AAAGCTAT | -0.0474
ACCAGTAA | 0.131
ACATTACA | 0.131
AGCAACGC | -0.0123
AAAGGCCA | -0.0877
ATAAGAAT | 0.207
ATACGACA | 0.0725
GATCCATA | 0.00716
ACTGACTC | 0.00686
CCTCTTGC | -0.222
GAGGTTCC | -0.116
CTGGGTTA | -0.126
CTGAGGTC | -0.227
CAAGTGAC | 0.0478
TGCTTGAA | 0.142
ACCCGGTA | -0.0141
GAACGCCA | -0.0877
CATTGTGA | 0.145
AACGACGG | 0.0326
ACGGAGGA | -0.0158
CCACATTA | 0.0768
CGCGAGTA | 0.161
CCTCGGGC | -0.209

Fetched one by one from the list above:
Sequence | PBM E-score
ACACCAGA | 0.11
GATCCATA | 0.00716
ACGCGTAT | 0.196
CCATAACC | -0.0883
TTACGGAA | 0.266

Later entries:

Sequence | PBM E-score
ATATGCGA | 0.154
ATCTGCTG | -0.0569
GCGAACAC | -0.0514
CCTTGCAG | -0.283
TAACTCAA | 0.0672
AGGCGCTC | -0.205
GATGACAA | 0.264
AAACTGTG | 0.0327
GGCCTCAC | -0.153
CTCACCTC | 0.0325
CTCCCCCA | -0.246
CCAGGGGC | -0.383
TGAATCCA | 0.12
CTGAACCA | -0.0486
CTTTCAGA | 0.0118
AAGGCTGC | -0.215
TGCAGACA | -4e-05
AAAAAGTC | 0.201
AACGACAT | 0.202
